The results in this text go back to PubChem BioAssay AID493191 (Broad Institute, 2011).

Among all 1,300 compounds or so, about 330 (25%) were called active. How the calls were made is not given here. This is a selection; strong and weak results do not stand in their true shares. Potency and affinity values are given separately.

The nature of the assay: growth inhibition of MALME3 cells – cell-based, CellTiter-Glo, cherry-picked, orthogonal assay for MITF inhibitor project, dose response (AID 493191). To be noted: MALME3 melanoma viability, CellTiter-Glo luminescence, 24 h; at 35 µM (top of the series). For orientation: In ATP-based viability assays light output follows the ATP content of the culture.
With `COc1ccc(C(=O)NC(=O)Nc2cc(C)ccn2)cc1`, the activity change, negative = inhibition is inactive: -25.7%.

Consider `COc1cc(C(=O)N/N=C(\c2ccccc2)c2ccccn2)cc(OC)c1OC`, for which the activity change, negative = inhibition was inactive: -45.1%.

Regarding `Cc1cc2oc3ccc(NCCC4CCCN4C)cc3c(=O)c2cc1C` (stereo not given), the activity change, negative = inhibition is -92.6%.

For the compound `O=c1c2ccccc2cnn1CCOc1ccccc1`, the activity change, negative = inhibition was inactive: -21.9%.

In the case of `Cn1nnnc1Sc1ncnc2scc(-c3cccs3)c12`, the activity change, negative = inhibition is inactive: -17.8%.

`Cc1ccc(S(=O)(=O)CC(CN2CCCCC2)N2CCCCC2)cc1` (stereo not given): the activity change, negative = inhibition is inactive: 6.97%.

As to `COc1cccc2sc(N(CCCN(C)C)C(=O)C(c3ccccc3)c3ccccc3)nc12`, the activity change, negative = inhibition is -94.5%.

As to `O=C(NC1CC1)C1CCN(S(=O)(=O)c2ccc(Cl)c([N+](=O)[O-])c2)CC1`, the activity change, negative = inhibition was inactive: -35.8%.

For `COc1cccc(C(=O)Nc2ccc3c(cc2=O)[C@@H](NC(C)=O)CCc2cc(OC)c(OC)c(OC)c2-3)c1`, the activity change, negative = inhibition is inactive: -7.94%.

As to `Cc1ccccc1Cn1c(=N)n(CC(=O)c2ccc([N+](=O)[O-])cc2)c2ccccc21`, the activity change, negative = inhibition was inactive: -24.4%.

In the case of `COC(=O)c1c(NC(=O)c2nc3ccccc3s2)sc2c1CC(C)(C)NC2(C)C`, the activity change, negative = inhibition is inactive: -5.34%.

On to `CCCCC1C(=O)N(c2ccccc2)N(c2ccc(O)cc2)C1=O` (stereo not given), for which the activity change, negative = inhibition was inactive: -3.31%.

Take `COC(=O)C1=C(C)N(Cc2ccccc2)C(=NCCc2cccnc2)N[C@H]1c1ccc(Br)cc1`: the activity change, negative = inhibition was -95.5%.

Take `Cc1ccc(SCc2cn3cc(Cl)ccc3n2)cc1`: the activity change, negative = inhibition was inactive: -21.6%.

Regarding `O=C(NC1CCCCC1)C(c1cccnc1)N(C(=O)CCl)c1cccc(Cl)c1` (stereo not given), the activity change, negative = inhibition was inactive: -10.9%.

Take `CC(=O)N(\C=C/C=C/C=C1\Sc2ccccc2C1=O)c1ccccc1`: the activity change, negative = inhibition is inactive: -36%.

For `Cc1ccc2nc(-c3cccnc3)oc2c1`, the activity change, negative = inhibition was inactive: -3.42%.

`CCCCn1c(=O)[nH]c(=O)c2c1nc(Cn1ncc(Cl)c(Cl)c1=O)n2CCC`: the activity change, negative = inhibition is -84.6%.

As for `Cc1ccc(NC(=O)c2ccccc2)cc1`, the activity change, negative = inhibition is inactive: 5.52%.

On to `O=C(N/N=C/c1ccc([N+](=O)[O-])o1)c1sc2ccccc2c1Cl`, for which the activity change, negative = inhibition was inactive: -55.5%.

Regarding `O=C(Nc1ccc(Cl)c(S(=O)(=O)N2CCOCC2)c1)c1ccc(OCC2CCCO2)cc1` (stereo not given), the activity change, negative = inhibition is inactive: -44.9%.

In the case of `CN(C)Cc1c(O)ccc2c1O/C(=C\C=C\c1ccccc1)C2=O`, the activity change, negative = inhibition was inactive: 7.22%.

For the compound `CC(=O)N(c1nnc(-c2cccc(C)c2)s1)C1CCCC1`, the activity change, negative = inhibition was inactive: 1.3%.

As to `C=C1C(=O)C=C[C@]2(C)C[C@@H]3OC(=O)[C@](C)(O)[C@H]3C[C@@H]12`, the activity change, negative = inhibition was inactive: -38.6%.

In the case of `O=C(O)c1cccc(NC(=O)c2cccc(NC(=O)C3CCCO3)c2)c1` (stereo not given), the activity change, negative = inhibition was inactive: 2.35%.

For `CCOc1ccc(-c2noc(CCC(=O)O)n2)cc1`, the activity change, negative = inhibition was inactive: 6.15%.

`CCOC(=O)N1CCC(NC(=O)C2CCCN(Cc3nc(-c4cccc(C)c4)oc3C)C2)CC1` (stereo not given): the activity change, negative = inhibition was inactive: -2.51%.

As for `COC(=O)C1=C(C)N(Cc2ccccc2)C(=NCc2ccccc2)N[C@H]1c1ccccc1`, the activity change, negative = inhibition was -93.9%.

As for `OCc1ccc(N=Nc2ccccc2)cc1`, the activity change, negative = inhibition is inactive: 4.1%.

Regarding `O=[N+]([O-])c1ccc(-n2nnnc2-c2ccccc2)c([N+](=O)[O-])c1`, the activity change, negative = inhibition was -93%.
